The results in this text go back to US20190194660A1.

Sequences of proteins named here, by UniProt entry; tags and fusion partners are left off. A change or cut given only in a name is not applied to a line headed by its entry.
UniProt Q07955: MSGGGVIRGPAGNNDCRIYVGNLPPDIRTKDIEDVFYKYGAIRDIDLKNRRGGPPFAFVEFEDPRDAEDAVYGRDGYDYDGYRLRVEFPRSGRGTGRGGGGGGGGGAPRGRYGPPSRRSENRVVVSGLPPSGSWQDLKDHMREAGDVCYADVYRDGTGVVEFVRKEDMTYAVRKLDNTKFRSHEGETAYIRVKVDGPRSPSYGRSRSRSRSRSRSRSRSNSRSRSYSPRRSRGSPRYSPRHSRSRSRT

The experiment deals with T1, endogenous NXF1 in mouse neuronal N2A cells (mouse (endogenous in mouse neuronal N2A cells)) (UniProt Q99JX7).
T1 sequence (looked up): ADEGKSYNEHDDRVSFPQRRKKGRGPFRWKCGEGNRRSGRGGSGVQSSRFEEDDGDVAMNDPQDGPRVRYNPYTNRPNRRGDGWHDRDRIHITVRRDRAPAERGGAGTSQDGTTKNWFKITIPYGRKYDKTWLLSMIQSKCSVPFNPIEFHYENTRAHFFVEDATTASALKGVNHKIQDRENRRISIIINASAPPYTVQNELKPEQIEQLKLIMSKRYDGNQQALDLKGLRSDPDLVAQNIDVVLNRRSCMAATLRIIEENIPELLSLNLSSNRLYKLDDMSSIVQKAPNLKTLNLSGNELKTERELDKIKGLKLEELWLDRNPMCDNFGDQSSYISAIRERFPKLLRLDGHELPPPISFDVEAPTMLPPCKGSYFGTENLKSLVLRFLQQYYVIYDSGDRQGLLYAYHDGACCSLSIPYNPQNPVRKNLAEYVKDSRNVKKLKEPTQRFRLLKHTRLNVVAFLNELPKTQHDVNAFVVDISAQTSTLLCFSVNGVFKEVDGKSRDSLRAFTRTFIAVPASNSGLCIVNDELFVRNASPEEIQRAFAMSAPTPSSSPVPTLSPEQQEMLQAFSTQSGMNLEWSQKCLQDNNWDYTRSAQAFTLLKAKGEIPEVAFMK
Description: anti-FLAG co-immunoprecipitation from transfected N2A cell extracts, anti-NXF1 western blot.

No constants are given. Whether binding was seen depends on the method and setting. Binding seen in cells or lysates may run through a third protein. Some results given as binding are weak or reduced against the parent protein; the word gives no strength.

For “FLAG-tagged SRSF1 aa11-196 wild type (from UniProt Q07955 11-196)”, the binding entry is reported as “binds”. Then “FLAG-tagged SRSF1 11-196 double R117,118A mutant (SRSF1-m2) (from UniProt Q07955 11-196)”, with “binds”.
